No constants are given. Whether binding was seen depends on the method and setting. In cells and extracts the contact can be indirect. Some entries that bind do so weakly or less than the wild type. Values belong to the molecule of their own block, whether it stands above or below them.
Assays:
[1] = target: T1, p21 (mouse (endogenous in lung tumor tissue)) (UniProt P39689); assay: co-IP; lung tumor tissue lysates of WT or parkin KO mice; immunoprecipitated with anti-p21 antibody, protein A/G beads; blotted for parkin, PCNA or CDK2
T1 sequence: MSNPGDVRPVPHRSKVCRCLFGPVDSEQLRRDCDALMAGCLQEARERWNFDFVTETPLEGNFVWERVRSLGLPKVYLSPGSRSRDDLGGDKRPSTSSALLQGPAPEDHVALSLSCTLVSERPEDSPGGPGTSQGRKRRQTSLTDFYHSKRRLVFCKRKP

Amino acid sequences for entries named in this document (tags omitted).
UniProt P38936: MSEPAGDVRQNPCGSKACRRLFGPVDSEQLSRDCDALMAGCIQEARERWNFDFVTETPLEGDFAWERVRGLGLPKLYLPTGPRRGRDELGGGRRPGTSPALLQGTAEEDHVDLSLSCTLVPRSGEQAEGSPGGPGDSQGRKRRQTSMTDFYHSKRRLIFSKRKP
UniProt P17918: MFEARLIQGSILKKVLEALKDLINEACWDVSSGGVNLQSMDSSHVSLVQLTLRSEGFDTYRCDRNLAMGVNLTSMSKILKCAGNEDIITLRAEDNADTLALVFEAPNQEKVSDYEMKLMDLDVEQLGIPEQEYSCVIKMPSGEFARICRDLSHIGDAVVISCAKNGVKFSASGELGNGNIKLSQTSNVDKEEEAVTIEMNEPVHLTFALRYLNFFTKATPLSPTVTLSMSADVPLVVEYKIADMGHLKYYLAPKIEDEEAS

[2] = target: p21 (human (endogenous in A549)) (UniProt P38936); assay: co-IP; A549 cell lysates (EBC buffer); immunoprecipitated with polyclonal anti-p21 antibody, protein A/G beads; blotted for parkin, PCNA or CDK2; cells untreated, transfected with p21 plasmid vectors or with parkin siRNA

binding [1]: binds
Molecule: proliferating cell nuclear antigen (from UniProt P17918 1-261)

binding [2]: binds
B1: parkin (protein, UniProt Q9WVS6 1-464)
chain: MIVFVRFNSSYGFPVEVDSDTSILQLKEVVAKRQGVPADQLRVIFAGKELPNHLTVQNCDLEQQSIVHIVQRPRRRSHETNASGGDEPQSTSEGSIWESRSLTRVDLSSHTLPVDSVGLAVILDTDSKRDSEAARGPVKPTYNSFFIYCKGPCHKVQPGKLRVQCGTCKQATLTLAQGPSCWDDVLIPNRMSGECQSPDCPGTRAEFFFKCGAHPTSDKDTSVALNLITSNRRSIPCIACTDVRSPVLVFQCNHRHVICLDCFHLYCVTRLNDRQFVHDAQLGYSLPCVAGCPNSLIKELHHFRILGEEQYTRYQQYGAEECVLQMGGVLCPRPGCGAGLLPEQGQRKVTCEGGNGLGCGFVFCRDCKEAYHEGDCDSLLEPSGATSQAYRVDKRAAEQARWEEASKETIKKTTKPCPRCNVPIEKNGGCMHMKCPQPQCKLEWCWNCGCEWNRACMGDHWFDV

Source: article PMC6528990
